Results published in patent US20260193623A1 (METAGENOMI, published 2026).
No constants are given. Whether binding was seen depends on the method and setting. Some binding calls cover weakened binding; strength is not graded here.

Key:
Experiment in all cases: anti-HA immunoblot of lysates of transfected HEK293T cells; band at 2x the expected size (homodimer)
MG153-1 = target: MG153-1
MG153-2 = target: MG153-2
MG153-3 = target: MG153-3

B1: MG153-1 (enzyme, not shown: small tags and cut ends)
chain: MDTSSLMEQILSKENLNAAYLQVVRNKGAAGVDGMNVEELGAYLSENGENIREQLRTRKYKPQPVRRVEIPKPDGGVRNLGVPTVVDRFVQQAVAQVLTPIFEEQFHDHSYGFRPNRCAQQAVLKALEMMNDGHSWIVDIDLAKFFDTVDHDKLMTIFGRTIKDGDVISVVRKFLVSGVMIDDEYEDTIVGTPQGGNISPLLANIMLNELDNELEARGLNFVRYADDLIIMVGSKQAADRVMKSVTRFIEEKLGLKVNAEKSKVDKPKGIKYLGFGFYFDTFAKAYKARPHPKAVTKFKAQMKKLTCRSWGVSNAYKVQKLNQLIRGWINYFKIGNMKRLCQRLDSNIRYRLRMCIWKHWKTPKNRAKNMMKLGLPAWAAWRSAYIHGYARVCRSRDVHRTITSERLKQFGLMSMTDYYTERSVAC
B1 was tested, and the binding (MG153-1) was “binds”.

B2: MG153-2 (enzyme, not shown: small tags and cut ends)
chain: MDTSSLMEQILSKDNLNAAYLQVVRNKGAAGVDGMTVEELGAYLSENGESIREQLRTRKYRPQPVRRAEISKPDGGVRKLGVPTVVDRFVQQAVAQVLTPIFEEQFHDHSYGFRPNRCAQQAVLKALEMMNDGHSWIVDIDLAKFFDTVDHDKLMTIFGRTIKDGDVISVVRKFLVSGVMIDDEYEDTIVGTPQGGNISPLLANIMLNELDKELEARGLDFVRYADDLIIMVGSRQAADRVMKSVTRFIEERLGLKVNAEKSKVDKPKGIKYLGFGFYFDSFAKAYKARPHPKAVAKFKAQMKKLTCRSWGVSNSYKVLKLNQLIRGWINYFRIGSMIELCKRLDENIRFRLRMCIWKHWKTPKNRAKLLMLLDVPRWAAYKIAYSGNRYARITHNGWVHKAISNKRLAAFGLISMEDYYAKRRVAC
In the case of B2, the binding (MG153-2) is reported as “binds”.

B3: MG153-3 (enzyme, not shown: small tags and cut ends)
chain: MDTSSLMEQILSKDNLNAAYLQVVRNKGAAGVDGMTVEELGTYLSENGESIREQLRTRKYKPQPVRRVEIPKPDGGIRNLGVPTVVDRFVQQAVAQVLTPIFEEQFHDHSYGFRPNRCAQQAVLKALEMMNDGHDWIVDIDLAKFFDTVDHDKLMTIFGRTIKDGDVISVVRKFLVSGVMIDDEYEDTIVGTPQGGNISPPLANIMLNELDKELEARGLDFVRYADDLIIMVGSRQAADRVMKSVTRFIEERLGLKVNAEKSKVDKPKGIKYLGFGFYFDSFAKAYKARPHQKAVAKFMAQMKKLTCRSWGVSNAYKVQKLNQLIRGWINYFKIGSMKGLCERLDCNIRYRLRMCIWKHWKTPQNRAKYLMQLGIGRKYAWSTAYTGARIAYVCQRGAMNMAITKERLTRFGLVSMADYYAKRRVTC
For B3, the binding (MG153-3) was “binds”.
